Article PMC5553161
No constants are given. Whether binding was seen depends on the method and setting. Binding seen in cells or lysates may run through a third protein. Binding calls can cover weak binding; strength is not graded here.

Columns and labels:
[1] = target: T1, vesicle-associated membrane protein-associated protein A (human (endogenous in Huh7)) (UniProt Q9P0L0); assay: co-IP; lysates of Huh7 cells stably harboring wild-type, S225D or S225A SGRs immunoprecipitated with antibodies to NAP1L1, Bin1, VAP-A or VAP-B; Western blot for NS5A, quantified (n = 3)
T1 sequence: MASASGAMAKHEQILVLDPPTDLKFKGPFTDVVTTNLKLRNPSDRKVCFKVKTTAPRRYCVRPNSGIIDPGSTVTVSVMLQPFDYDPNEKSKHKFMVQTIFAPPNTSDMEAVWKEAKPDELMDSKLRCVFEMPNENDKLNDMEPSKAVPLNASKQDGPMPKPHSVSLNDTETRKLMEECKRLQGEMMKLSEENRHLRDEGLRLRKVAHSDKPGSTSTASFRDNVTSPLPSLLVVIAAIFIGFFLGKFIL

[2] = target: T2, bridging integrator 1 (human (endogenous in Huh7)) (UniProt O00499); assay: as above
T2 sequence: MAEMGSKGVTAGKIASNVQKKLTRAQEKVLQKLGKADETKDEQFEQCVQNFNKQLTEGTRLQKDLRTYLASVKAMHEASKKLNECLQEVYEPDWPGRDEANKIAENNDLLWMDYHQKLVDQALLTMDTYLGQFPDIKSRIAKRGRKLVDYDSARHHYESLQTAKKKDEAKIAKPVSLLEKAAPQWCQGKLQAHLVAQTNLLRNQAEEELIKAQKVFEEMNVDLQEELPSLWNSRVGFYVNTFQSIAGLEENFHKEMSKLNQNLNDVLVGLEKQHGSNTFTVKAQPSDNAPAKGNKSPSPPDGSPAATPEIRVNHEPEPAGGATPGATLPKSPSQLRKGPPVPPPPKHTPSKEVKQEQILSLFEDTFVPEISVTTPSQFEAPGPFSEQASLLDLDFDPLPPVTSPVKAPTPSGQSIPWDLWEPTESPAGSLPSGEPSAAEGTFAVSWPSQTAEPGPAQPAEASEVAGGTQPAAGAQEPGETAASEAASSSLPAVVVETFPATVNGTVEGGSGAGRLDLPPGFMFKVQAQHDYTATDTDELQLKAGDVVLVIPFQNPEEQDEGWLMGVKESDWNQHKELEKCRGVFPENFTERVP

[3] = target: T3, nucleosome assembly protein 1-like protein 1 (human (endogenous in Huh7)) (UniProt P55209); assay: as above
T3 sequence: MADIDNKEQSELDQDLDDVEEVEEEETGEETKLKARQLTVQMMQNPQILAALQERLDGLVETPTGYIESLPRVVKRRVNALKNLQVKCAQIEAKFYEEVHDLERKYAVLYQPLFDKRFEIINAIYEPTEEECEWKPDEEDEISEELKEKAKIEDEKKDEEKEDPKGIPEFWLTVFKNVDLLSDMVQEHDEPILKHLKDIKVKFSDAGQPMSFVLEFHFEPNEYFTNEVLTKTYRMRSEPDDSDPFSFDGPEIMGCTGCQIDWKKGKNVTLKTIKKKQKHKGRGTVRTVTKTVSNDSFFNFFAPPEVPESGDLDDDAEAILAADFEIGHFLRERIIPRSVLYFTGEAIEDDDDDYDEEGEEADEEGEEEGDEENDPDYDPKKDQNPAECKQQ

[4] = target: T2, bridging integrator 1 (human (endogenous in Huh7)); assay: proximity ligation; fixed, permeabilised Huh7 cells stably harboring SGRs; mouse anti-NS5A with rabbit anti-NAP1L1 or anti-Bin1; Duolink PLA probes, signals counted per cell
[5] = target: T3, nucleosome assembly protein 1-like protein 1 (human (endogenous in Huh7)); assay: as above

Measured: binding

One-Strep-tagged (OST) NS5A S225D of hepatitis C virus JFH-1 (genotype 2a)
binds: all assays above

One-Strep-tagged (OST) wild-type NS5A of hepatitis C virus JFH-1 (genotype 2a)
binds: all assays above
